PubChem BioAssay AID1259254, NCATS – 2017
The whole screen tested about 59,000 reagents; shown is an unselected part. About 1,550 of them (2.6%) were called active. 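G2 share is only a proxy for re-replication; each gene was hit by three separate siRNAs, and active genes were retested.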 Reagents against one gene are numbered here. Further read-outs or replicates are left out here. Not stated in the record: the amount of reagent.

Aim: 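Genome-wide screen for genes that prevent DNA re-replication in cancer cells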 (primary screen)
Cells: human HCT116 colorectal cancer cells
Reagent: single siRNA against human genes
Timing: 3 days
Measurement: 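Imaged Hoechst DNA stain sorts each cell into a cycle phase by DNA amount; per plate, G2 fraction set to 0% for non-targeting and 100% for GMNN siRNA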
Scale: G2 robust z-score: higher = more G2 cells, more excess DNA replication
Active means: 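An siRNA counts as active if its G2 robust z-score lies at least 5 MADs above the screen median; here such calls match roughly 38% of GMNN control or more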

G2 robust z-score, by gene and reagent
SLC22A8: #1 -0.433 inactive; #2 -0.322 inactive; #3 0.427 inactive
ANKRD35: #1 -0.649 inactive; #2 0.383 inactive; #3 0.487 inactive
SUCO: #1 -0.611 inactive; #2 0.514 inactive; #3 -0.503 inactive
KRI1: #1 2.02 inactive; #2 0.113 inactive; #3 -0.259 inactive
ENPP7: #1 -0.828 inactive; #2 0.793 inactive; #3 -0.474 inactive
ADRB3: #1 -0.198 inactive; #2 1.29 inactive; #3 0.174 inactive

Laid out differently: results already given
SUCO #1: G2 robust z-score = -0.611; activity call = inactive
SUCO #2: G2 robust z-score = 0.514; activity call = inactive
SUCO #3: G2 robust z-score = -0.503; activity call = inactive
KRI1 #1: G2 robust z-score = 2.02; activity call = inactive
KRI1 #2: G2 robust z-score = 0.113; activity call = inactive
KRI1 #3: G2 robust z-score = -0.259; activity call = inactive
ENPP7 #1: G2 robust z-score = -0.828; activity call = inactive
ENPP7 #2: G2 robust z-score = 0.793; activity call = inactive

More results follow.
G2 robust z-score, by gene and reagent
SLC43A3: #1 1.02 inactive; #2 1.17 inactive; #3 8.84 active
FOXL1: #1 -1.71 inactive; #2 3.96 inactive; #3 -0.454 inactive
NXPE2: #1 -0.499 inactive; #2 0.649 inactive; #3 -0.0229 inactive
IRF5: #1 0.15 inactive; #2 -1.79 inactive; #3 -0.819 inactive
ITGA7: #1 -0.502 inactive; #2 -1.09 inactive; #3 4.05 inactive
SGSM3: #1 -0.727 inactive; #2 1.41 inactive; #3 2.01 inactive
ADCY4: #1 -1.47 inactive; #2 -0.646 inactive; #3 -0.497 inactive
ZFP41: #1 0.0351 inactive; #2 1.4 inactive; #3 0.0717 inactive
LYG1: #1 0.259 inactive; #2 -0.415 inactive; #3 0.0645 inactive
ZNF671: #1 -0.196 inactive; #2 -0.576 inactive; #3 -0.567 inactive
